What all share (assay): co-IP; HEK293T co-transfected with APOBEC3-HA and WT or mutant Vif-myc; lysates (50 mM Tris-HCl pH 7.5, 150 mM NaCl, 1% Triton X-100) at 48 h immunoprecipitated with anti-myc antibody and protein G (legend: A/G) beads, 4°C, 3 h; co-precipitated APOBEC3-HA detected by immunoblot
Assay [1] addresses VifDR14/15AA-myc (HIV-1) (UniProt P12504).
Assay [2] concerns the target VifW79A-myc (HIV-1) (UniProt P12504).
For assay [3], the target named is VifK22E-myc (HIV-1) (UniProt P12504).
Assay [4] has as its target VifRH41/42AA-myc (HIV-1) (UniProt P12504).

Sequences of proteins named here, by UniProt entry; tags and fusion partners are left off. A change or cut given only in a name is not applied to a line headed by its entry.
UniProt Q96AK3, whole entry: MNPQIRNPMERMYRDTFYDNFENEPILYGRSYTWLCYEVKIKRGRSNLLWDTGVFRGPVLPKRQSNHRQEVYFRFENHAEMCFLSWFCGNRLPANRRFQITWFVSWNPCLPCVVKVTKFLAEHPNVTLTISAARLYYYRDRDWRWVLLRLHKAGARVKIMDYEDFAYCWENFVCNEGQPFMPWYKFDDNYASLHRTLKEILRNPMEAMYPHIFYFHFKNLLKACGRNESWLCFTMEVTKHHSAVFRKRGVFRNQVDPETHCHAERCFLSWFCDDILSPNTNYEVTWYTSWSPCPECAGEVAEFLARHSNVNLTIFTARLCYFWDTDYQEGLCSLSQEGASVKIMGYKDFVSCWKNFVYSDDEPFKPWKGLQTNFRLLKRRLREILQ
UniProt Q9NRW3, whole entry: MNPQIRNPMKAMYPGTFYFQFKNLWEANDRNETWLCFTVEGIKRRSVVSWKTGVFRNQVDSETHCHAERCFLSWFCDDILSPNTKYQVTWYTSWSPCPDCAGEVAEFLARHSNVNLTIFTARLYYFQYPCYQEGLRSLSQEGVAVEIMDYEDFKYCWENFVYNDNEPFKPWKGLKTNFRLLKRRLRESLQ

Results are given in words; binding and its absence hold for the method and conditions named. Binding seen in cells or lysates may run through a third protein. Some binding calls cover weakened binding; strength is not graded here.

For A3DE-HA (from UniProt Q96AK3 1-386), the binding result in assay [1] and in assay [2] was “binds” in each case.

For A3C-HA (from UniProt Q9NRW3 1-190), the binding entry in assay [3] and in assay [4] was “binds” each time.

Values taken from PMC2597746.
